From the supplement of paper PMC12823440, “Inhibitors supercharge kinase turnover through native proteolytic circuits” (Nature, 2025)
Counter-ions that a name gives are not always drawn. Some of the results follow. The calls rarely recur for the same compound in another form.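 Kinases were expressed as nanoluciferase fusions in K562 cells and luminescence was read every 4 h between 2 and 18 h as percent of control, DMSO set to 100% and a positive control to 0%. A time point counts as decreased when the signal drops significantly (2 sigma). The hit call is the authors' own, does not follow from the count of time points alone, and its rule is not shown.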

The chains behind the UniProt entries cited, without tags or fusion partners. Where a name states a change or a piece, a line headed by the entry shows the natural chain unless it says otherwise.
UniProt P28482, whole entry: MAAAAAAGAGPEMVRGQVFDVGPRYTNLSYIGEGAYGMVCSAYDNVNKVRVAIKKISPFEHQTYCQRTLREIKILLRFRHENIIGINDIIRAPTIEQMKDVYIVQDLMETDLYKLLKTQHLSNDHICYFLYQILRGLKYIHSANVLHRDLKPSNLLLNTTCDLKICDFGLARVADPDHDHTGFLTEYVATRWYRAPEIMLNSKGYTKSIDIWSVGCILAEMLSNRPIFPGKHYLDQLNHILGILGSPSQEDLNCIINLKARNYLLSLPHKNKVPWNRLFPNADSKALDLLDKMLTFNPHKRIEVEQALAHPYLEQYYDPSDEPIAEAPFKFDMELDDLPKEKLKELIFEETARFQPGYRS
UniProt P31152, whole entry: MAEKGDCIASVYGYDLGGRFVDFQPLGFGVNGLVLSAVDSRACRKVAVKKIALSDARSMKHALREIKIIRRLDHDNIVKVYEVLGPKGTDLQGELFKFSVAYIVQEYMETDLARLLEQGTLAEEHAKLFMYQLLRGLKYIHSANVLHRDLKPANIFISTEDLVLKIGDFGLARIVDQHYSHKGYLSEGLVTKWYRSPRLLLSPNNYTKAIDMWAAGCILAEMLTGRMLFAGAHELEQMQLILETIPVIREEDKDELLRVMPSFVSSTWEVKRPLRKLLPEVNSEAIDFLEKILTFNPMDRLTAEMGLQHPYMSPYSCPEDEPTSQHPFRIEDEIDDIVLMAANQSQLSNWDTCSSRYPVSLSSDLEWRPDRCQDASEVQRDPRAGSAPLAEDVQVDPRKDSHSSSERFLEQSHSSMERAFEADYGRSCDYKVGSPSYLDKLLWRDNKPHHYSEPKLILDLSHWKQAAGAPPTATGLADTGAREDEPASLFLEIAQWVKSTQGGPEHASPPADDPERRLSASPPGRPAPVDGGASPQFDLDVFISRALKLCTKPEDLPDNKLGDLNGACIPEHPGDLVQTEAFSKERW
UniProt P49137, whole entry, looked up: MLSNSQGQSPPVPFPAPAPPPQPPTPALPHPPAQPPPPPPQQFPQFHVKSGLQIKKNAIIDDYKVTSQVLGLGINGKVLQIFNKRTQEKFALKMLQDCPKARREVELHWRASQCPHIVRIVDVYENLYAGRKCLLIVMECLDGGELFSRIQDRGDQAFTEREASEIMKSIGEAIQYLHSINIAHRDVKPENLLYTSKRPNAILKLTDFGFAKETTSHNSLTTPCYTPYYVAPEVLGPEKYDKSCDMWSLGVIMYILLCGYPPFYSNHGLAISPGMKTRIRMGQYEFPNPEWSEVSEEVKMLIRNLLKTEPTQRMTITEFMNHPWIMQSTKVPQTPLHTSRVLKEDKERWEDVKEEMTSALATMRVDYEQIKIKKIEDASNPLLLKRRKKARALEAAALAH
UniProt Q9BUB5: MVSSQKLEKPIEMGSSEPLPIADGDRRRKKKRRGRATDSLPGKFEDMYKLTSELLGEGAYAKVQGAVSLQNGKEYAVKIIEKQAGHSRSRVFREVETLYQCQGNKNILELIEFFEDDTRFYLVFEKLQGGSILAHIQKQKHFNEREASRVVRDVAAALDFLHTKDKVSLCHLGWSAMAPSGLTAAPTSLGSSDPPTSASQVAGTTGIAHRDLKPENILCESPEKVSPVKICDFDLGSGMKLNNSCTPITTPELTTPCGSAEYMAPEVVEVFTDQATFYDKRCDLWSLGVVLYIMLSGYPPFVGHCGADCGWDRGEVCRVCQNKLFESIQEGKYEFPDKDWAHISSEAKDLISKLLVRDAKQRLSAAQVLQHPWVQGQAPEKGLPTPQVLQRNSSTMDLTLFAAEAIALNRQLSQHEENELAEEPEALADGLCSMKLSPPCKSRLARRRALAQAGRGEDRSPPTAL
UniProt Q16620, whole entry, looked up: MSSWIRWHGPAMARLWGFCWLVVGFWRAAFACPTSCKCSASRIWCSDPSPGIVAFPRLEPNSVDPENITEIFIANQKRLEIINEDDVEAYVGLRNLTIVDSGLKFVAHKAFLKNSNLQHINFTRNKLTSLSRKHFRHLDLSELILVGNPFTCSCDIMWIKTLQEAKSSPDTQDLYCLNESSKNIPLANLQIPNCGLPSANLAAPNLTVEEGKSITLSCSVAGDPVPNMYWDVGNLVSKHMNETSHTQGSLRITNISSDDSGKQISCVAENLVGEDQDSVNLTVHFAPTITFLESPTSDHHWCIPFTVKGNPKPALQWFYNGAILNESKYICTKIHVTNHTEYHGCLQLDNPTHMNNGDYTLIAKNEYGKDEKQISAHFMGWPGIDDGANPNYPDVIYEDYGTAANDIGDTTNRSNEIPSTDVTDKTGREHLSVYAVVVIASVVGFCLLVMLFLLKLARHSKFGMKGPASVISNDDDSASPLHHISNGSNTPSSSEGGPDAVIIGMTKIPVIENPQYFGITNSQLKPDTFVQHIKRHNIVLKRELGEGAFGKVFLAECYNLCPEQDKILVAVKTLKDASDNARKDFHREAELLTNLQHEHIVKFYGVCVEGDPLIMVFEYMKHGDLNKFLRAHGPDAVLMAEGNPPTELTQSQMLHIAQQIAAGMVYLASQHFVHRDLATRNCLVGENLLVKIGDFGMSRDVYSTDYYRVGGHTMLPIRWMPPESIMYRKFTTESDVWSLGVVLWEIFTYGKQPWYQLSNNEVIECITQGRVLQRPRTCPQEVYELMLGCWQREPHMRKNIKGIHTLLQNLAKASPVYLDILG
UniProt Q16288, whole entry, looked up: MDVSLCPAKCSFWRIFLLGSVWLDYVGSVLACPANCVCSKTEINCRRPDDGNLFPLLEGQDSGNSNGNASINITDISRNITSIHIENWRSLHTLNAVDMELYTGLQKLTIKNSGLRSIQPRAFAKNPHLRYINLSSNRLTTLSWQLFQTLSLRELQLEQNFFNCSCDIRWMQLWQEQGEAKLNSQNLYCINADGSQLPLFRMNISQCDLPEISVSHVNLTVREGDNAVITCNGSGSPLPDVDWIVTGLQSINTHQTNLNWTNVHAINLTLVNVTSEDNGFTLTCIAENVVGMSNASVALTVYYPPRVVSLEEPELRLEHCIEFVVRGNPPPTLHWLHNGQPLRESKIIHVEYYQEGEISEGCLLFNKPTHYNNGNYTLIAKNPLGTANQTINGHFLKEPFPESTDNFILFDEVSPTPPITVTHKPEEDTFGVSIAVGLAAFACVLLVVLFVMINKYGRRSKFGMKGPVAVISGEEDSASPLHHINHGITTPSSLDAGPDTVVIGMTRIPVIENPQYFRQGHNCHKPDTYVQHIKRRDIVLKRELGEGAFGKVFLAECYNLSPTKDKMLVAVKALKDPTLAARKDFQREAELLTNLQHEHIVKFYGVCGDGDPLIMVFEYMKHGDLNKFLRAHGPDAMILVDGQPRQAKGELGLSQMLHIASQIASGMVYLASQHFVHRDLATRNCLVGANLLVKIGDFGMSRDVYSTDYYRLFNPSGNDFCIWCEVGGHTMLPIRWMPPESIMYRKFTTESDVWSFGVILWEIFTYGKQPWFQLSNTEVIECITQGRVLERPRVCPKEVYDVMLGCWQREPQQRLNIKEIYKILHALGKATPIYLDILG
UniProt O96013: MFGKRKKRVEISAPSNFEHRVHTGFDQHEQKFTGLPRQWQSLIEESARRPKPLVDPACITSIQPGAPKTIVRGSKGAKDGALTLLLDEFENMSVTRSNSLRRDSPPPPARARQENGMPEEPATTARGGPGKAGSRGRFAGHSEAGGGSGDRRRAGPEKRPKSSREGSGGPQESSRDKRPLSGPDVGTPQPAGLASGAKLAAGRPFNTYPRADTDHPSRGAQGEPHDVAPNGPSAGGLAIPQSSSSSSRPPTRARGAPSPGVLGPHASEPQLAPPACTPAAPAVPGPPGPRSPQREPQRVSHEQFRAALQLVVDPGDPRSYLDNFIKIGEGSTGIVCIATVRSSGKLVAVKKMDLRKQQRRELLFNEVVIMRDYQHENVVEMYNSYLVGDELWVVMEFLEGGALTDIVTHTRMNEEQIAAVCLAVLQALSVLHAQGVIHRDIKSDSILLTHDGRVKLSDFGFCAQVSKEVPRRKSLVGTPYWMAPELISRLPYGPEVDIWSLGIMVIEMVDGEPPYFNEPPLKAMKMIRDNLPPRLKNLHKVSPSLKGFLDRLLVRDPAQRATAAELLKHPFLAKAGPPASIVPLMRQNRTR
UniProt Q96KB5: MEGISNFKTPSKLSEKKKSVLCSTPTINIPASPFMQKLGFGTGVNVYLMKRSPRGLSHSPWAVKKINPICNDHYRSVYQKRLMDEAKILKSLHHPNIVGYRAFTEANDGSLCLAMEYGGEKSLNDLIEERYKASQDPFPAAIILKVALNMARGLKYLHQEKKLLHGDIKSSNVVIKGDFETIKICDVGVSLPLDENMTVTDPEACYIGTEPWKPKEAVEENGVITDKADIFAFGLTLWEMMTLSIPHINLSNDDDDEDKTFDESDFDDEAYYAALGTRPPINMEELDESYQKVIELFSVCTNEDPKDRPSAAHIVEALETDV
UniProt P09619, whole entry: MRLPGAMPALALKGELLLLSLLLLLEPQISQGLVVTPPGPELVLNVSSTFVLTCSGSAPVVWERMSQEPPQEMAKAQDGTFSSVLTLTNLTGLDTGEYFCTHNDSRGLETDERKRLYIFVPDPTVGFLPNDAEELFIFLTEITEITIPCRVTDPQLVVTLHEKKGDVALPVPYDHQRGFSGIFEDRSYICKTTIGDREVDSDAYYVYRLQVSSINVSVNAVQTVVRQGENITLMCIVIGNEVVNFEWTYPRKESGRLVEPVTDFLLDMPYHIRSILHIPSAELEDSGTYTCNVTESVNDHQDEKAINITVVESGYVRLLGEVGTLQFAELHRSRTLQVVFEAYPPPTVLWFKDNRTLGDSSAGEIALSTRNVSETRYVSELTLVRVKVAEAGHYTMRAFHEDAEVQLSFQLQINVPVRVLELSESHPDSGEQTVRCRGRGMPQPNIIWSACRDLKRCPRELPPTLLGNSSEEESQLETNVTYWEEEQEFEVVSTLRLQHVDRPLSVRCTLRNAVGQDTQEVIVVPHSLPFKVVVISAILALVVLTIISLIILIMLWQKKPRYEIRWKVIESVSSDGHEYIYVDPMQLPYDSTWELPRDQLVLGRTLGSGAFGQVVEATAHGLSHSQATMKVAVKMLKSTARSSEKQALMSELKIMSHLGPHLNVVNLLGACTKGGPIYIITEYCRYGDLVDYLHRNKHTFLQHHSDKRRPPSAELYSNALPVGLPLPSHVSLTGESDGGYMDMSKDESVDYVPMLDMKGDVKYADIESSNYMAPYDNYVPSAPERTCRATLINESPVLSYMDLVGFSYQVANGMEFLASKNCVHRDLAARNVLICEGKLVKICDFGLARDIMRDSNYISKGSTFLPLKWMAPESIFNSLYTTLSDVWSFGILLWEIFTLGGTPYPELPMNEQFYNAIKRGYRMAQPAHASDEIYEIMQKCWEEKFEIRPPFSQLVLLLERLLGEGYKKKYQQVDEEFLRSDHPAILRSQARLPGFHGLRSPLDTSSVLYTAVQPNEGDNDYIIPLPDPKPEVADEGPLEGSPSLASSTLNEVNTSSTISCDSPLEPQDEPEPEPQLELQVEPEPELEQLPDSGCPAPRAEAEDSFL
UniProt Q15118, whole entry, looked up: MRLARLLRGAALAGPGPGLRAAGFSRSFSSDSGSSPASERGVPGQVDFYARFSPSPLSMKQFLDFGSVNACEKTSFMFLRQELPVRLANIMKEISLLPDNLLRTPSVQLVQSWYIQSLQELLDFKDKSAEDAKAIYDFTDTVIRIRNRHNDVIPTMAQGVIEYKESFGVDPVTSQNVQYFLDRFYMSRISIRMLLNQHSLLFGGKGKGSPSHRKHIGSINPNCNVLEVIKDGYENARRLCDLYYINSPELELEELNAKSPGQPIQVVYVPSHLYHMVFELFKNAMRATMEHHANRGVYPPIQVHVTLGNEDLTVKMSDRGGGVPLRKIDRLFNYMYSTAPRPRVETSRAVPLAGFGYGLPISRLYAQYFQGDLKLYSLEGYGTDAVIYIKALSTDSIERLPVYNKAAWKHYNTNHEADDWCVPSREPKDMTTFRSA

Key:
Assay in all cases: kinase-Nluc reporter destabilization hit call (1 = scored as downregulated) (binary); higher = compound decreases kinase abundance
Conditions in all cases: K562; 2-18 h
MAPK1 = MAPK1 (UniProt P28482)
MAPK4 = MAPK4 (UniProt P31152)
MAPKAPK2 = MAPKAPK2 (UniProt P49137)
MKNK1 = MKNK1 (UniProt Q9BUB5)
NTRK2 = NTRK2 (UniProt Q16620)
NTRK3 = NTRK3 (UniProt Q16288)
PAK4 = PAK4 (UniProt O96013)
PBK = PBK (UniProt Q96KB5)
PDGFRB = PDGFRB (UniProt P09619)
PDK1 = PDK1 (UniProt Q15118)

Measured: kinase-Nluc reporter destabilization hit call

COc1cc2ncnc(Nc3cccc(Cl)c3F)c2cc1OC(=O)N1CCN(C)C[C@H]1C [Zorifertinib] (10 µM)
inactive: MAPK1 = 0 | MAPK4 = 0 | MAPKAPK2 = 0 | MKNK1 = 0 | NTRK2 = 0 | NTRK3 = 0 | PAK4 = 0 | PBK 0 | PDGFRB 0 | PDK1 = 0

COc1cc(C(=O)NC2CCN(C)CC2)c(F)cc1Nc1ncc2c(n1)N(C1CCCC1)CC(F)(F)C(=O)N2C [TAK-960 (dihydrochloride)] (2.5 µM)
inactive: MAPK1 = 0 | MAPK4 = 0 | MAPKAPK2 = 0 | MKNK1 = 0 | NTRK2 = 0 | NTRK3 = 0 | PAK4 = 0 | PBK 0 | PDGFRB 0 | PDK1 = 0

COCCNCCc1cccc(Nc2ncc3c(n2)-c2ccccc2[C@H](c2ccccc2F)C3)c1 [Derazantinib] (2.5 µM)
inactive: MAPK1 = 0 | MAPK4 = 0 | MAPKAPK2 = 0 | MKNK1 = 0 | NTRK2 = 0 | NTRK3 = 0 | PAK4 = 0 | PBK 0 | PDGFRB 0 | PDK1 = 0

CC(C)=CC/C=C(\C)[C@H]1CC[C@]2(C)[C@@H]1[C@H](O)C[C@@H]1[C@@]3(C)CC[C@H](O[C@@H]4O[C@H](CO)[C@@H](O)[C@H](O)[C@H]4O[C@@H]4O[C@H](CO)[C@@H](O)[C@H](O)[C@H]4O)C(C)(C)[C@@H]3CC[C@]12C [Ginsenoside Rg5] (10 µM)
inactive: MAPK1 = 0 | MAPK4 = 0 | MAPKAPK2 = 0 | MKNK1 = 0 | NTRK2 = 0 | NTRK3 = 0 | PAK4 = 0 | PBK 0 | PDGFRB 0 | PDK1 = 0

O=C1Cc2c([nH]c3ccc(Br)cc23)-c2ncccc2N1 [1-Azakenpaullone] (10 µM)
inactive: MAPK1 = 0 | MAPK4 = 0 | MAPKAPK2 = 0 | MKNK1 = 0 | NTRK2 = 0 | NTRK3 = 0 | PAK4 = 0 | PBK 0 | PDGFRB 0 | PDK1 = 0

CC(C)n1cnc2c(NCc3cccc(C(F)(F)F)c3)ncnc21 [Longdaysin] (10 µM)
inactive: MAPK1 = 0 | MAPK4 = 0 | MAPKAPK2 = 0 | MKNK1 = 0 | NTRK2 = 0 | NTRK3 = 0 | PAK4 = 0 | PBK 0 | PDGFRB 0 | PDK1 = 0

Random excerpt: two entries already listed
CC(C)=CC/C=C(\C)[C@H]1CC[C@]2(C)[C@@H]1[C@H](O)C[C@@H]1[C@@]3(C)CC[C@H](O[C@@H]4O[C@H](CO)[C@@H](O)[C@H](O)[C@H]4O[C@@H]4O[C@H](CO)[C@@H](O)[C@H](O)[C@H]4O)C(C)(C)[C@@H]3CC[C@]12C [Ginsenoside Rg5] (10 µM)
inactive: MAPK1 = 0 | MAPK4 = 0 | MAPKAPK2 = 0 | MKNK1 = 0 | NTRK2 = 0 | NTRK3 = 0 | PAK4 = 0 | PBK 0 | PDGFRB 0 | PDK1 = 0

COc1cc2ncnc(Nc3cccc(Cl)c3F)c2cc1OC(=O)N1CCN(C)C[C@H]1C [Zorifertinib] (10 µM)
inactive: MAPK1 = 0 | MAPK4 = 0 | MAPKAPK2 = 0 | MKNK1 = 0 | NTRK2 = 0 | NTRK3 = 0 | PAK4 = 0 | PBK 0 | PDGFRB 0 | PDK1 = 0

Remaining list, next part:

CC(C)c1cnn2c(NCc3ccccc3)cc(NC[C@H]3CCNC[C@@H]3O)nc12 [Samuraciclib (hydrochloride)] (10 µM)
inactive: MAPK1 = 0 | MAPK4 = 0 | MAPKAPK2 = 0 | MKNK1 = 0 | NTRK2 = 0 | NTRK3 = 0 | PAK4 = 0 | PBK 0 | PDGFRB 0 | PDK1 = 0

CCCn1cnc2c(NCc3ccccc3)nc(NC(CC)CO)nc21 (stereo not given) [Ca2+ channel agonist 1] (2.5 µM)
inactive: MAPK1 = 0 | MAPK4 = 0 | MAPKAPK2 = 0 | MKNK1 = 0 | NTRK2 = 0 | NTRK3 = 0 | PAK4 = 0 | PBK 0 | PDGFRB 0 | PDK1 = 0

CNC(=O)c1cccc(-c2ccc3c(N4CCOC[C@@H]4C)nc(N4CCOC[C@@H]4C)nc3n2)c1 [Vistusertib] (2.5 µM)
inactive: MAPK1 = 0 | MAPK4 = 0 | MAPKAPK2 = 0 | MKNK1 = 0 | NTRK2 = 0 | NTRK3 = 0 | PAK4 = 0 | PBK 0 | PDGFRB 0 | PDK1 = 0

COc1cc(Nc2ncc3c(n2)-c2ccc(Cl)cc2C(c2c(F)cccc2OC)=NC3)ccc1C(=O)O [Alisertib] (2.5 µM)
inactive: MAPK1 = 0 | MAPK4 = 0 | MAPKAPK2 = 0 | MKNK1 = 0 | NTRK2 = 0 | NTRK3 = 0 | PAK4 = 0 | PBK 0 | PDGFRB 0 | PDK1 = 0

C[C@H](NC(=O)/C(C#N)=C/c1cccc(Br)n1)c1ccccc1 (2.5 µM)
inactive: MAPK1 = 0 | MAPK4 = 0 | MAPKAPK2 = 0 | MKNK1 = 0 | NTRK2 = 0 | NTRK3 = 0 | PAK4 = 0 | PBK 0 | PDGFRB 0 | PDK1 = 0

O=c1cc(-c2ccccc2)oc2c(O)c(O)ccc12 [7,8-Dihydroxyflavone] (10 µM)
inactive: MAPK1 = 0 | MAPK4 = 0 | MAPKAPK2 = 0 | MKNK1 = 0 | NTRK2 = 0 | NTRK3 = 0 | PAK4 = 0 | PBK 0 | PDGFRB 0 | PDK1 = 0

COc1cc(C)c(Sc2cnc(NC(=O)c3ccc(CNC(C)C(C)(C)C)cc3)s2)cc1C(=O)N1CCN(C(C)=O)CC1 (stereo not given) (2.5 µM)
inactive: MAPK1 = 0 | MAPK4 = 0 | MAPKAPK2 = 0 | MKNK1 = 0 | NTRK2 = 0 | NTRK3 = 0 | PAK4 = 0 | PBK 0 | PDGFRB 0 | PDK1 = 0

COc1cc2ncnc(Nc3ccc(O)cc3)c2cc1OC (10 µM)
inactive: MAPK1 = 0 | MAPK4 = 0 | MAPKAPK2 = 0 | MKNK1 = 0 | NTRK2 = 0 | NTRK3 = 0 | PAK4 = 0 | PBK 0 | PDGFRB 0 | PDK1 = 0

CCCCNc1ncc(-c2ccc(CN3CCOCC3)cn2)c(NC2CCC(O)CC2)n1 (stereo not given) (10 µM)
inactive: MAPK1 = 0 | MAPK4 = 0 | MAPKAPK2 = 0 | MKNK1 = 0 | NTRK2 = 0 | NTRK3 = 0 | PAK4 = 0 | PBK 0 | PDGFRB 0 | PDK1 = 0

Nc1ncnc2c1c(-c1cccc(OCc3ccccc3)c1)cn2C1CC(CN2CCCC2)C1 (stereo not given) (2.5 µM)
inactive: MAPK1 = 0 | MAPK4 = 0 | MAPKAPK2 = 0 | MKNK1 = 0 | NTRK2 = 0 | NTRK3 = 0 | PAK4 = 0 | PBK 0 | PDGFRB 0 | PDK1 = 0

COc1ccc2c(C(=O)Nc3ccc(NC(=O)c4nn(C5CCN(C(=O)CC(C)(C)C#N)CC5)c5ccc(F)cc45)cc3Cl)cnn2c1 [Src Inhibitor 3] (2.5 µM)
inactive: MAPK1 = 0 | MAPK4 = 0 | MAPKAPK2 = 0 | MKNK1 = 0 | NTRK2 = 0 | NTRK3 = 0 | PAK4 = 0 | PBK 0 | PDGFRB 0 | PDK1 = 0

CCC(=O)N1CCN(c2ccc(-n3c(=O)ccc4cnc5ccc(-c6cnc7ccccc7c6)cc5c43)cc2C(F)(F)F)CC1 [Torin 1] (2 µM)
inactive: MAPK1 = 0 | MAPK4 = 0 | MAPKAPK2 = 0 | MKNK1 = 0 | NTRK2 = 0 | NTRK3 = 0 | PAK4 = 0 | PBK 0 | PDGFRB 0 | PDK1 = 0

Cc1nc(-c2cnc(NC(C)C)n(C)c2=O)ccc1Oc1ccnc(-c2cnn(C)c2)c1 (2.5 µM)
inactive: MAPK1 = 0 | MAPK4 = 0 | MAPKAPK2 = 0 | MKNK1 = 0 | NTRK2 = 0 | NTRK3 = 0 | PAK4 = 0 | PBK 0 | PDGFRB 0 | PDK1 = 0

Cc1c[nH]c2nccc(Oc3c(F)cc(Nc4cc(Cl)nc(N)n4)cc3F)c12 (10 µM)
inactive: MAPK1 = 0 | MAPK4 = 0 | MAPKAPK2 = 0 | MKNK1 = 0 | NTRK2 = 0 | NTRK3 = 0 | PAK4 = 0 | PBK 0 | PDGFRB 0 | PDK1 = 0

COc1nccc(-c2c(-c3ccc(F)cc3)ncn2C2CCC(O)CC2)n1 (stereo not given) (10 µM)
inactive: MAPK1 = 0 | MAPK4 = 0 | MAPKAPK2 = 0 | MKNK1 = 0 | NTRK2 = 0 | NTRK3 = 0 | PAK4 = 0 | PBK 0 | PDGFRB 0 | PDK1 = 0

C=CC(=O)N1CCC[C@@H](n2nc(-c3ccc(Oc4ccccc4)cc3)c(C(N)=O)c2N)C1 [Btk inhibitor 2] (10 µM)
inactive: MAPK1 = 0 | MAPK4 = 0 | MAPKAPK2 = 0 | MKNK1 = 0 | NTRK2 = 0 | NTRK3 = 0 | PAK4 = 0 | PBK 0 | PDGFRB 0 | PDK1 = 0

O=C(/C=C/c1ccc(O)c(O)c1)c1ccc(O)cc1O [Butein] (10 µM)
inactive: MAPK1 = 0 | MAPK4 = 0 | MAPKAPK2 = 0 | MKNK1 = 0 | NTRK2 = 0 | NTRK3 = 0 | PAK4 = 0 | PBK 0 | PDGFRB 0 | PDK1 = 0

COc1cc(CCc2cc(-c3nc4ccc(N5CCN(C)CC5)cc4[nH]3)n[nH]2)cc(OC)c1 (10 µM)
inactive: MAPK1 = 0 | MAPK4 = 0 | MAPKAPK2 = 0 | MKNK1 = 0 | NTRK2 = 0 | NTRK3 = 0 | PAK4 = 0 | PBK 0 | PDGFRB 0 | PDK1 = 0

O=C([O-])c1ccccc1O.[Na+] [Sodium Salicylate] (10 µM)
inactive: MAPK1 = 0 | MAPK4 = 0 | MAPKAPK2 = 0 | MKNK1 = 0 | NTRK2 = 0 | NTRK3 = 0 | PAK4 = 0 | PBK 0 | PDGFRB 0 | PDK1 = 0

CN(C)Cc1ccc(-c2cnn3c(-c4cccc(NC(=O)c5cccc(C(F)(F)F)c5)c4)ccnc23)cc1 (2.5 µM)
inactive: MAPK1 = 0 | MAPK4 = 0 | MAPKAPK2 = 0 | MKNK1 = 0 | NTRK2 = 0 | NTRK3 = 0 | PAK4 = 0 | PBK 0 | PDGFRB 0 | PDK1 = 0

CNc1nc(-c2ccc3c(N)n[nH]c3c2)cc(N2C[C@@H](C(=O)NC3CCCCC3)CC[C@H]2C)n1 (10 µM)
inactive: MAPK1 = 0 | MAPK4 = 0 | MAPKAPK2 = 0 | MKNK1 = 0 | NTRK2 = 0 | NTRK3 = 0 | PAK4 = 0 | PBK 0 | PDGFRB 0 | PDK1 = 0

O=C(c1ccc(-c2ccc(Cl)cc2)o1)N(Cc1ccccn1)c1ccc(N2CCNCC2)cc1 [MK2-IN-1 (hydrochloride)] (10 µM)
inactive: MAPK1 = 0 | MAPK4 = 0 | MAPKAPK2 = 0 | MKNK1 = 0 | NTRK2 = 0 | NTRK3 = 0 | PAK4 = 0 | PBK 0 | PDGFRB 0 | PDK1 = 0

C[C@H](CN(C)C)Oc1nc(Nc2cc3cccc(Cl)c3cn2)cnc1C#N (10 µM)
inactive: MAPK1 = 0 | MAPK4 = 0 | MAPKAPK2 = 0 | MKNK1 = 0 | NTRK2 = 0 | NTRK3 = 0 | PAK4 = 0 | PBK 0 | PDGFRB 0 | PDK1 = 0
